Source: patent US4687759 (dated 1987)
HELM strings list residues between dots; [ac] is acetyl, [am] amide, other brackets name non-standard units.

Assay: general procedure: solution-phase peptide synthesis; BOP/DIEA
Conditions: late stage modification step

**Q.** Which step yield does the source give for “PEPTIDE1{[Boc].[bAla].[dW].L.D.[OPhEt]}$$$$V2.0” here?
**A.** The step yield was 84%.

**Q.** For “PEPTIDE1{[Boc].[bAla].W.L.D.[OPhEt]}$$$$V2.0”, which step yield is on record?
**A.** Its step yield is 79%.
